In PubChem BioAssay AID1347426 (Functional Genomics Laboratory (NCATS/FGL), 2020):
Among all 31,000 sequences or so, about 1,400 (4.5%) were called active.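 How the source made its calls: active means median seed-adjusted z-score above 1 or below -1; inactive means the rest.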 The list shows a part of the results.

Assay: Novel Modifiers of Survival Motor Neuron (SMN) Protein: Gene Identification via Genome-wide siRNA Screen
Conditions: HEK293T SMN2-luciferase reporter, siRNA knockdown, 72 h; actives lie on both sides
From the text: Spinal muscular atrophy (SMA) is the most common neuromuscular autosomal recessive disorder and one of the leading genetic causes of infant death. SMA results from mutations inducing loss of function or deletion in the survival of motor neuron-1 gene (SMN1), leading to deficiency of the survival motor neuron (SMN) protein. Although a second nearly identical gene, SMN2, is retained in humans, its expression primarily produces an aberrantly spliced isoform that is largely unstable and quickly degraded. We performed a genome-wide RNAi screen using a cell-based reporter assay to identify genes and pathways that modulate SMN protein stability. The screen identified over 200 genes that led to the greatest increase or decrease in luciferase expression.
Using HEK293T cells stably expressing a luciferase reporter that combines the promoter and splicing based cassettes in tandem with the major portion of the native SMN2 cDNA with luciferase, we performed a genome-wide RNAi screen to identify modulators of SMN protein levels. Luciferase is expressed when full-length SMN protein is generated with luminescence signal proportional to SMN protein levels. Our luciferase-based reporter assay was used to screen Ambion Silencer Select Human Druggable Genome siRNA library (10418 genes, 3 unique siRNAs per gene) using lipid-based reverse transfection.
Briefly, 1 pmol of each siRNA was spotted to a well of a 384-well plate (Corning, Corning, NY) and 20 microL of serum-free DMEM containing […] of Lipofectamine RNAiMax (Life Technologies, Carlsbad, CA) was then added to each well. Transfected cells were maintained at 37 degrees C in 5% CO2 for 72 hours, 20 microL of ONE-Glo Reagent (Promega) was added to wells for luciferase quantification. Raw luminescence reads were normalized to Ambion(R) Silencer(R) Negative Control #2 siRNA, then log10 transformed. A robust statistical measure of median absolute deviation (MAD) to standardize siRNA activities from each screen. Common Seed Analysis was used to help prioritize clean hits as opposed to those appearing to arise from seed based off-target effects. Candidate modulators were defined as the genes having a MAD score greater than 1.0 or less than -1.0.
With AGCCCUACAUGACCCAGGATT against KCNJ4 the median seed-adjusted z-score was inactive: -0.492. With CAUUCUUAAUUACAGUGGATT against TXNDC9 the median seed-adjusted z-score was inactive: -0.176. In the case of AGAUGAAGCAAUAGAUUAUTT against CETN3, the median seed-adjusted z-score was inactive: -0.0815. With CCUAGAUACUUGCCGCAAATT against YARS2 the median seed-adjusted z-score was inactive: 0.0901. In the case of CACUAUCGAUGUGAUCAUUTT against SGMS2, the median seed-adjusted z-score was inactive: -0.492. For CAACUGGUUCCCUAAGAAATT against TAGLN2, the median seed-adjusted z-score was inactive: 0.432. With GCACAGGUCCUAUAGGAGATT against MGAM the median seed-adjusted z-score was inactive: 0.312. With GCAAUUCCAUGAUAAGGAATT against MMP20 the median seed-adjusted z-score was inactive: 0.0623. In the case of AAGCCUUGGUCUAAAGGUATT against CD1B, the median seed-adjusted z-score was inactive: -0.407. For GGAUCCAUGCAGAACAUUUTT against USP51, the median seed-adjusted z-score was inactive: -1. With CUUCCUAGGUUACAAGUAATT against FAM84B the median seed-adjusted z-score was inactive: -0.431. In the case of GACCCAAAGUUUGCAACAATT against DUSP11, the median seed-adjusted z-score was inactive: -0.0184. With GGAUAACUGGGAUGACGAUTT against EIF3J the median seed-adjusted z-score was inactive: -0.411. With ACAAUUCGCAGAGAGCUUATT against MOAP1 the median seed-adjusted z-score was inactive: 0.0405. With GCUACAACGGAAACAAUCATT against MSTN the median seed-adjusted z-score was inactive: -0.639. With GAGAGUAUAUUGACUAUGATT against XRN1 the median seed-adjusted z-score was inactive: 0.522. For CUUAACCUGUGGAAUCGAATT against NIPA2, the median seed-adjusted z-score was inactive: -0.103. In the case of CCACAGCAGGUGUCAUAUATT against NGFR, the median seed-adjusted z-score was inactive: -0.0846. In the case of GAAUCUUUACAGGACUAUATT against CDC2, the median seed-adjusted z-score was inactive: 0.424. For GGCUGAGCUUUAGAAAGCUTT against LENG9, the median seed-adjusted z-score was inactive: 0.607. For GAACAGUGUCGAGAACAAATT against SLAMF1, the median seed-adjusted z-score was inactive: -0.104. In the case of GCCUAGACUUCAAUAAGAATT against PPP2R2A, the median seed-adjusted z-score was inactive: -0.596. For CACUGGUUAUAAAUCUUCATT against CADM3, the median seed-adjusted z-score was inactive: 0. For GAAUCGUUGUUGUUAUGCATT against RASA1, the median seed-adjusted z-score was inactive: -0.398. With CUCCAUAACUGAUCCAGGATT against ZDHHC21 the median seed-adjusted z-score was inactive: 0.216. In the case of GGAAGAUAUGCAAGCAGAATT against RNF112, the median seed-adjusted z-score was inactive: -0.42. For CCCACGAUCUCAAAAAGAUTT against PC, the median seed-adjusted z-score was inactive: 0.2. With CCUAAAUGGUCGCAAAGUATT against PABPC3 the median seed-adjusted z-score was inactive: -0.314. For CUUGGGACCUCCAAACUUATT against RAD52, the median seed-adjusted z-score was inactive: -0.737. For GCCUCUCAACGUGAAAGUUTT against KRT2, the median seed-adjusted z-score was inactive: -0.451. With GCUUGGAGGAUUUCAUGGATT against POFUT1 the median seed-adjusted z-score was inactive: 0. With CCCUAGGCCUUUUACGAAATT against RAG1 the median seed-adjusted z-score was active: -1.35. With CCAUAUAGAGAUACUCAAATT against HIF1A the median seed-adjusted z-score was inactive: 0.228. For CAAAGACAGCCGCCCAGAATT against APOC2, the median seed-adjusted z-score was inactive: -0.0599. With CCCACUACAUGUUCCUGUUTT against ABHD9 the median seed-adjusted z-score was inactive: 0.486. With GGAUCCAGCUUUUCCUCGATT against ABCC10 the median seed-adjusted z-score was active: -1.56. With CUACGUGUCGGGAAGUACATT against DHCR24 the median seed-adjusted z-score was inactive: 0.493. In the case of GUUUGACCAUGUAACCGUATT against DIS3L, the median seed-adjusted z-score was inactive: 0. For AGUACUACAUGGAUCUCAATT against PURA, the median seed-adjusted z-score was inactive: -0.0185. For GCUACUUACAGGUACCGUATT against PDCD11, the median seed-adjusted z-score was inactive: -0.335. In the case of CAUCUGAUCCGGGAAAUCATT against GALNT14, the median seed-adjusted z-score was inactive: 0. With GAUUUGAUGUCGUCUUUAATT against PTGR1 the median seed-adjusted z-score was inactive: 0. For GAGAGAUUUCGGUCCAUUATT against RAB30, the median seed-adjusted z-score was inactive: 0.395. For CAGUCAAUGUCGAUAGUAATT against ARID4B, the median seed-adjusted z-score was inactive: 0.211. In the case of GGAAGAAUACAACAAGGAATT against CUX1, the median seed-adjusted z-score was inactive: -0.527. For GGUGAAGACCUAUCGAAGATT against IL13RA2, the median seed-adjusted z-score was inactive: 0.113. With GCUCGGAAUUUUUAUGAGATT against UPF2 the median seed-adjusted z-score was inactive: -0.376. With GGAACCUGGAGAUAUCAUUTT against FUT8 the median seed-adjusted z-score was inactive: 0.464. In the case of GUCAAAUACCAAUGCUUUATT against CERK, the median seed-adjusted z-score was inactive: 0. With CAGUCUCCCUUUAUACCAATT against TEC the median seed-adjusted z-score was inactive: 0.258. For CGACUACGAUGGAAACAUUTT against EXOSC8, the median seed-adjusted z-score was inactive: 0.203. In the case of CUGUAUAUCUUGUACGGCATT against PIAS2, the median seed-adjusted z-score was inactive: -0.096. For GCUCCUUUUACUCCGCCUATT against FN3KRP, the median seed-adjusted z-score was inactive: 0.00247. With GCAACUCCAUGUAAAACCATT against ZNF114 the median seed-adjusted z-score was inactive: -0.303.
